Laboratory results published in the supplement of paper PMC8728848.
Some of the results follow.

How the values were obtained:
Test in all cases: glycan array binding signal (z-score within array); higher = stronger binding
Conditions in all cases: glycan notation: IUPAC condensed, linker removed
[1] = biological target: GalNAc(b1-3)Gal
How it was run: (§1)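 Glycan array binding is given as a within-array Z-score, which can be read as non-binding when negative. The arrays, 3228 of them, came from the Consortium for Functional Glycomics database and were retained only where the protein sequence was available. Z-scores were averaged across arrays of the same protein sequence at different concentrations or buffers and across linkers.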

[2] = biological target: GalNAc(b1-3)Gal(a1-4)Gal(b1-4)GlcNAc
How it was run: as §1

[3] = biological target: GalNAc(b1-3)Gal(a1-4)Gal(b1-4)GlcNAc(b1-3)Gal(b1-4)Glc
How it was run: as §1

[4] = biological target: GalNAc(b1-3)Gal(a1-6)Gal(b1-4)Glc
How it was run: as §1

[5] = biological target: GalNAc(b1-3)GalNAc
How it was run: as §1

[6] = biological target: GalNAc(b1-3)GlcNAc
How it was run: as §1

[7] = biological target: GalNAc(b1-4)Gal(b1-4)Glc
How it was run: as §1

[8] = biological target: GalNAc(b1-4)GlcNAc
How it was run: as §1

[9] = biological target: GalNAc(b1-4)GlcNAc(b1-2)Man
How it was run: as §1

[10] = biological target: GalNAc(b1-4)GlcNAc(b1-2)Man(a1-3)[GalNAc(b1-4)GlcNAc(b1-2)Man(a1-6)]Man(b1-4)GlcNAc(b1-4)GlcNAc
How it was run: as §1

[11] = biological target: GalNAc(b1-4)GlcNAc(b1-3)GalNAc(b1-4)GlcNAc
How it was run: as §1

[12] = biological target: GalNAc(b1-4)GlcNAc6S
How it was run: as §1

[13] = biological target: GalNAc(b1-6)GalNAc
How it was run: as §1

[14] = biological target: GalNAc3S(b1-4)GlcNAc
How it was run: as §1

[15] = biological target: GalNAc3S(b1-4)GlcNAc3S
How it was run: as §1

[16] = biological target: GalNAc3S(b1-4)[Fuc(a1-3)]GlcNAc
How it was run: as §1

[17] = biological target: GalNAc4S6S(b1-4)GlcNAc
How it was run: as §1

[18] = biological target: GalNAc6S(b1-4)GlcNAc
How it was run: as §1

[19] = biological target: Glc(a1-4)Glc
How it was run: as §1

[20] = biological target: Glc(a1-4)Glc(a1-4)Glc(a1-4)Glc
How it was run: as §1

[21] = biological target: Glc(a1-6)Glc(a1-6)Glc
How it was run: as §1

[22] = biological target: Glc(a1-6)Glc(a1-6)Glc(a1-6)Glc
How it was run: as §1

[23] = biological target: Glc(b1-4)Glc
How it was run: as §1

[24] = biological target: Glc(b1-6)Glc
How it was run: as §1

[25] = biological target: GlcA(b1-3)Gal
How it was run: as §1

[26] = biological target: GlcA(b1-3)GlcNAc
How it was run: as §1

[27] = biological target: GlcA(b1-6)Gal
How it was run: as §1

[28] = biological target: GlcA3S(b1-3)Gal(b1-4)GlcNAc(b1-2)Man
How it was run: as §1

[29] = biological target: GlcA3S(b1-3)Gal(b1-4)GlcNAc(b1-3)Gal(b1-4)Glc
How it was run: as §1

[30] = biological target: GlcNAc(a1-3)Gal(b1-4)GlcNAc
How it was run: as §1

[31] = biological target: GlcNAc(a1-4)Gal(b1-3)GlcNAc
How it was run: as §1

[32] = biological target: GlcNAc(a1-4)Gal(b1-4)GalNAc
How it was run: as §1

[33] = biological target: GlcNAc(a1-4)Gal(b1-4)GlcNAc
How it was run: as §1

[34] = biological target: GlcNAc(a1-4)Gal(b1-4)GlcNAc(b1-3)Gal(b1-4)Glc
How it was run: as §1

[35] = biological target: GlcNAc(a1-4)Gal(b1-4)GlcNAc(b1-3)Gal(b1-4)GlcNAc
How it was run: as §1

[36] = biological target: GlcNAc(a1-4)Gal(b1-4)GlcNAc(b1-3)Gal(b1-4)GlcNAc(b1-3)Gal(b1-4)GlcNAc
How it was run: as §1

[37] = biological target: GlcNAc(a1-4)Gal(b1-4)GlcNAc(b1-3)Gal(b1-4)[Fuc(a1-3)]GlcNAc(b1-3)Gal(b1-4)[Fuc(a1-3)]GlcNAc
How it was run: as §1

[38] = biological target: GlcNAc(a1-6)Gal(b1-4)GlcNAc
How it was run: as §1

B1: Epa3to2 (Candida glabrata) (protein)
chain: MGSSHHHHHHSSGLVPRGSHMKRELSSQNPFGYPIGCSPQDVAIIPGLTMELYSYPIVSGTPPNCYDASYVDPEYPRTGYLKRKMVGKSTGVTGNLNYKYSVEKACMVKYGNLPAGYNYNEPLTVSNFTMILYGYFKAQTTGLHTFFVNADDLLYINFGAGNAFDCCKREDSKTKLGEYVAYDIWHVDSSKNKVSLFLEKDLYYPIRMFFNNRDNNSSLDLSFSVNGATDQISDFSGYLYSVPDQPDTCPAHIGYDTTCR
- glycan array binding signal (z-score) [1]: 0.055
- glycan array binding signal (z-score) [2]: 0.528
- glycan array binding signal (z-score) [3]: -0.185
- glycan array binding signal (z-score) [4]: 1.12
- glycan array binding signal (z-score) [5]: -1
- glycan array binding signal (z-score) [6]: -0.249
- glycan array binding signal (z-score) [7]: 1.02
- glycan array binding signal (z-score) [8]: 0.112
- glycan array binding signal (z-score) [9]: -0.81
- glycan array binding signal (z-score) [10]: 0.675
- glycan array binding signal (z-score) [11]: 0.301
- glycan array binding signal (z-score) [12]: -0.544
- glycan array binding signal (z-score) [13]: 0.101
- glycan array binding signal (z-score) [14]: -0.257
- glycan array binding signal (z-score) [15]: -0.229
- glycan array binding signal (z-score) [16]: -1.03
- glycan array binding signal (z-score) [17]: -0.484
- glycan array binding signal (z-score) [18]: -0.991
- glycan array binding signal (z-score) [19]: -0.041
- glycan array binding signal (z-score) [20]: 1.2
- glycan array binding signal (z-score) [21]: -0.102
- glycan array binding signal (z-score) [22]: -0.53
- glycan array binding signal (z-score) [23]: -0.994
- glycan array binding signal (z-score) [24]: -0.081
- glycan array binding signal (z-score) [25]: -1.16
- glycan array binding signal (z-score) [26]: -0.485
- glycan array binding signal (z-score) [27]: -1.12
- glycan array binding signal (z-score) [28]: 0.15
- glycan array binding signal (z-score) [29]: 0.034
- glycan array binding signal (z-score) [30]: -1.07
- glycan array binding signal (z-score) [31]: -1.92
- glycan array binding signal (z-score) [32]: -0.645
- glycan array binding signal (z-score) [33]: -0.555
- glycan array binding signal (z-score) [34]: 0.002
- glycan array binding signal (z-score) [35]: -0.297
- glycan array binding signal (z-score) [36]: -0.047
- glycan array binding signal (z-score) [37]: 2.65
- glycan array binding signal (z-score) [38]: 1.07
